Assay results reported in patent publication US20210395313A1, “PEPTIDE PAC1 ANTAGONISTS” (AMGEN INC., priority 2017, published 2021).
Not every detail of the peptide structures is certain; ends, links or a residue may be inferred. Some compounds share one wording; it may come from a single statement. Bridges are numbered along the chain shown (N, C = ends). Where no end group is shown, it is not given here.

Biological target: T1, PAC1 (Rattus norvegicus, UniProt P32215)
T1 construct: Naive male Sprague Dawley® rats aged 8-12 weeks at the time of the study were purchased from Charles River Laboratories; tissue Charles River Laboratories; host or cells: live male Sprague Dawley rats; dermal blood flow on abdominal skin
T1 sequence (P32215 20-523): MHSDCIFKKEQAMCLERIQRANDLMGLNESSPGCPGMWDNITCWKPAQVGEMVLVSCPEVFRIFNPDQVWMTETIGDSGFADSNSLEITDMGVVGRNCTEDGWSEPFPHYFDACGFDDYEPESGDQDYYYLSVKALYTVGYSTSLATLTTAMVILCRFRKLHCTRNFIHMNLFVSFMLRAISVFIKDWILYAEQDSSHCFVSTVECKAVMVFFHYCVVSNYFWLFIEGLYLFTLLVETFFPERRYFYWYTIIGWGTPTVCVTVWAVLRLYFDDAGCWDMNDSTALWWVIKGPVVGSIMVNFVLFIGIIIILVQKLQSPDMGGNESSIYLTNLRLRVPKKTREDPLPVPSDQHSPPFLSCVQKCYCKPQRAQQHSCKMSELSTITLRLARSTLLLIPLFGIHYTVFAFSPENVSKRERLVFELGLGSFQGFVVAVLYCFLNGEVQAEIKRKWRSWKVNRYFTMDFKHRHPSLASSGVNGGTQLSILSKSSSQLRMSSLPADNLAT
Test: Rat maxadilan-induced increase in blood flow (MIIBF) PD model, laser Doppler imaging
Assay type: in vivo
Settings: for inhibition of maxadilan-induced increase in DBF: single bolus s.c., lowest dose of 0.3 mg/kg, 15 min prior to maxadilan, 45 min post peptide treatment; for inhibition of MIIBF (dermal blood flow): single bolus i.v., lowest dose of 0.1 mg/kg, 5 min prior to maxadilan, 35 min post peptide treatment
Description: PAC1 peptide antagonists were also evaluated in an in vivo pharmacodynamic model—a model of maxadilan-induced increase in blood flow.
Naive male Sprague Dawley® rats aged 8-12 weeks at the time of the study were purchased from Charles River Laboratories. Animals were group-housed in non-sterile, ventilated micro-isolator housing in Amgen Assessment and Accreditation of Laboratory Animal Committee (AAALAC)-accredited facility. Animals had ad libitum access to pelleted feed (Harlan Teklad 2020X, Indianapolis, IN) and water (on-site generated reverse osmosis) via automatic watering system.
All PAC1 peptides were tested in a rat maxadilan-induced increase in blood flow (MIIBF) pharmacodynamic (PD) model with a laser Doppler imaging. A dosing solution of maxadilan (Bachem, H6734.0500) was prepared fresh daily by diluted maxadilan stock solution (0.5 mg/mL) in 1× PBS to the final concentration of 0.5 μg/mL. All tested peptides were prepared in 1× PBS at different concentrations depend on the dose required for the experiment and given in a single bolus i.v. or s.c. injection. A laser Doppler imager (LDI-2, Moor Instruments, Ltd, Wilmington, Del.) was used to measure dermal blood flow (DBF) on the shaved skin of the rat abdomen with a low-power laser beam generated by a 633 nm helium-neon bulb. The measurement resolution was 0.2 to 2 mm, with scanning distances between the instrument aperture and the tissue surface of 30 cm. In this report, DBF was measured and expressed as % change from baseline [100×(individual post-CAP flux-individual baseline flux)/individual baseline flux] and further calculated to % Inhibition to quantify the magnitude of drug effect [Mean of vehicle % change from BL−individual drug treated rat % change from BL)/Mean of vehicle % change from BL].
On the test day, following anesthetization with propofol, the rat's abdominal area was shaved and each animal was placed in a supine position on a temperature-controlled circulating warm-water pad to maintain a stable body temperature during the study. After a 10 to 15 minute stabilization period, a rubber O-ring (0.925 cm inner diameter, O-Rings West, Seattle, Wash.) was placed on the rat abdomen without directly positioning it over a visible blood vessel while the rat placed in a supine position on a temperature-controlled circulating warm-water pad to maintain a stable body temperature during the study. After placement of an O-ring on the selected area, a baseline (BL) DBF measurement was taken. After the BL scan, PAC1 peptides were administrated either 5 min for i.v., or 15 min for s.c. then followed by 20 μL (in 0.5 μg/mL) intradermal injection of maxadilan at the center of the O-ring. The post-maxadilan DBF was measured at 30 min and the post peptides time was 35 min for i.v. and 45 min for s.c. respectively. The O-ring serves as an area of interest in which the DBF will be analyzed within the O-ring.
All DBF results were expressed as the mean±SEM. A one-way ANOVA followed by Dunnett's Multiple Comparison Test (MCT) was used to assess the statistical significance of PAC1 peptides effects relative to the vehicle within the study. A p<0.05 was used to determine significance between any two groups.

Compound	inhibition of maxadilan-induced increase in DBF	inhibition of MIIBF (dermal blood flow)
GCDATCQFRKAIDDCAKQAHHSNVPGSVFKACMKQKKKEFKAGY (disulfide 2-6, 15-32) [SEQ ID NO 58]	statistically significant inhibition	–
GCDATCQFRKAIDDCVRQAHHSNVPGSVFKACMKQKKKEWKAGH (disulfide 2-6, 15-32) [SEQ ID NO 88]	statistically significant inhibition	–
CDATCQFRKAIDDCVRQAHHSNVPGSVFKACMKQKKKEWKAGY (disulfide 1-5, 14-31) [SEQ ID NO 86]	statistically significant inhibition	–
CC[C@H](C)[C@H](NC(=O)[C@H](C)NC(=O)[C@H](CCCCN)NC(=O)[C@H](CCCNC(=N)N)NC(=O)[C@H](Cc1ccccc1)NC(=O)[C@H](CCC(N)=O)NC(=O)[C@@H]1CSSC[C@H](NC(C)=O)C(=O)N[C@@H](CC(=O)O)C(=O)N[C@@H](C)C(=O)N[C@@H]([C@@H](C)O)C(=O)N1)C(=O)N[C@@H](CC(=O)O)C(=O)N[C@@H](CC(=O)O)C(=O)N[C@H]1CSSC[C@@H](C(=O)N[C@@H](CCSC)C(=O)N[C@@H](CCCCN)C(=O)N[C@@H](CCC(N)=O)C(=O)N[C@@H](CCCCN)C(=O)N[C@@H](CCCCN)C(=O)N[C@@H](CCCCN)C(=O)N[C@@H](CCC(=O)O)C(=O)N[C@@H](Cc2ccccc2)C(=O)N[C@@H](CCCCN)C(=O)N[C@@H](C)C(=O)NCC(N)=O)NC(=O)C(C)(C)NC(=O)[C@H](CCCCN)NC(=O)[C@H](Cc2ccccc2)NC(=O)[C@H](C(C)C)NC(=O)[C@H](CO)NC(=O)CNC(=O)[C@@H]2CCCN2C(=O)[C@H](C(C)C)NC(=O)[C@H](CC(N)=O)NC(=O)[C@H](CO)NC(=O)[C@H](Cc2c[nH]cn2)NC(=O)[C@H](Cc2c[nH]cn2)NC(=O)[C@H](C)NC(=O)[C@H](CCC(N)=O)NC(=O)[C@H](CCCCN)NC(=O)[C@H](CCC(N)=O)NC1=O [SEQ ID NO 253]	–	statistically significant inhibition
CDATCQFRKAIDDCARQAHHSNVPGSVFKACMKQKKKEWKAGH (disulfide 1-5, 14-31) [SEQ ID NO 151]	statistically significant inhibition	–
CDATCQFRKAIDDCAKQAHHSNVPGSVFKACMKQKKKEFKAGY (disulfide 1-5, 14-31) [SEQ ID NO 56]	statistically significant inhibition	–
CDATCQFRKAIDDCARQAHHSNVPGSVWKACMKQKKKEWKAGH (disulfide 1-5, 14-31) [SEQ ID NO 105]	statistically significant inhibition	–
CC[C@H](C)[C@H](NC(=O)[C@H](C)NC(=O)[C@H](CCCCN)NC(=O)[C@H](CCCNC(=N)N)NC(=O)[C@H](Cc1ccccc1)NC(=O)[C@H](CCC(N)=O)NC(=O)[C@@H]1CSSC[C@H](NC(C)=O)C(=O)N[C@@H](CC(=O)O)C(=O)N[C@@H](C)C(=O)N[C@@H]([C@@H](C)O)C(=O)N1)C(=O)N[C@@H](CC(=O)O)C(=O)N[C@@H](CC(=O)O)C(=O)N[C@H]1CSSC[C@@H](C(=O)N[C@@H](CCSC)C(=O)N[C@@H](CCCCN)C(=O)N[C@@H](CCC(N)=O)C(=O)N[C@@H](CCCCN)C(=O)N[C@@H](CCCCN)C(=O)N[C@@H](CCCCN)C(=O)N[C@@H](CCC(=O)O)C(=O)N[C@@H](Cc2ccccc2)C(=O)N[C@@H](CCCCN)C(=O)N[C@@H](C)C(N)=O)NC(=O)C(C)(C)NC(=O)[C@H](CCCCN)NC(=O)[C@H](Cc2ccccc2)NC(=O)[C@H](C(C)C)NC(=O)[C@H](CO)NC(=O)CNC(=O)[C@@H]2CCCN2C(=O)[C@H](C(C)C)NC(=O)[C@H](CC(N)=O)NC(=O)[C@H](CO)NC(=O)[C@H](Cc2c[nH]cn2)NC(=O)[C@H](Cc2c[nH]cn2)NC(=O)[C@H](C)NC(=O)[C@H](CCC(N)=O)NC(=O)[C@H](CCCCN)NC(=O)[C@H](CCC(N)=O)NC1=O [SEQ ID NO 249]	–	statistically significant inhibition
CDATCQFRKAIDDCAKQAHHSNVPGSVFKACMKQKKKEWKAGH (disulfide 1-5, 14-31) [SEQ ID NO 152]	statistically significant inhibition	–
CC[C@H](C)[C@H](NC(=O)[C@H](C)NC(=O)[C@H](CCCCN)NC(=O)[C@H](CCCNC(=N)N)NC(=O)[C@H](Cc1ccccc1)NC(=O)[C@H](CCC(N)=O)NC(=O)[C@@H]1CSSC[C@H](N)C(=O)N[C@@H](CC(=O)O)C(=O)N[C@@H](C)C(=O)N[C@@H]([C@@H](C)O)C(=O)N1)C(=O)N[C@@H](CC(=O)O)C(=O)N[C@@H](CC(=O)O)C(=O)N[C@H]1CSSC[C@@H](C(=O)N[C@@H](CCSC)C(=O)N[C@@H](CCCCN)C(=O)N[C@@H](CCC(N)=O)C(=O)N[C@@H](CCCCN)C(=O)N[C@@H](CCCCN)C(=O)N[C@@H](CCCCN)C(=O)N[C@@H](CCC(=O)O)C(=O)N[C@@H](Cc2ccccc2)C(=O)N[C@@H](CCCCN)C(=O)N[C@@H](C)C(=O)NCC(=O)O)NC(=O)[C@H](C)NC(=O)[C@H](CCCCN)NC(=O)[C@H](Cc2ccccc2)NC(=O)[C@H](C(C)C)NC(=O)[C@H](CO)NC(=O)CNC(=O)[C@@H]2CCCN2C(=O)[C@H](C(C)C)NC(=O)[C@H](CC(N)=O)NC(=O)[C@H](CO)NC(=O)[C@H](Cc2c[nH]cn2)NC(=O)[C@H](Cc2c[nH]cn2)NC(=O)[C@H](C)NC(=O)[C@H](CCC(N)=O)NC(=O)[C@H](CCCCN)NC(=O)[C@H](CCC(N)=O)NC1=O [SEQ ID NO 190]	–	statistically significant inhibition
CDATCQFRKAIDDCVKQAHHSNVPGSVFKACMKQKKKEFKAGH (disulfide 1-5, 14-31) [SEQ ID NO 94]	statistically significant inhibition	–
CDATCQFRKAIDDCVRQAHHSNVPGSVFKACMKQKKKEWKAGH (disulfide 1-5, 14-31) [SEQ ID NO 156]	statistically significant inhibition	–
